Results taken from patent US20260184727A1, “SOLID FORMS OF MACROCYCLIC COMPOUNDS AND USES THEREOF” (AMGEN INC., priority 2024, published 2026).
At least one read-out could not be matched to a standard name with certainty.

Experiment: Comparative solubilities of Form 1 and Form 1E in biorelevant media
Assay type: physicochemical
Settings: further evaluation

## O=C1OCCCc2c(Cl)cc3[nH]ncc3c2-c2ncc3c(nc(OC[C@@]45CCCN4C[C@H](F)C5)nc3c2F)N2CCOC[C@H](C2)O1 [Form 1E]
  increase in solubility relative to Form 1: 5-10 times
